Measurements: the supplement of paper PMC10849652
The other results are listed elsewhere or left out.

Protein sequences, listed by entry. Tags and fused reporters are not part of them. Lines headed by an entry give the natural chain unless they say otherwise; changes in a name come on top.
UniProt Q96RT1: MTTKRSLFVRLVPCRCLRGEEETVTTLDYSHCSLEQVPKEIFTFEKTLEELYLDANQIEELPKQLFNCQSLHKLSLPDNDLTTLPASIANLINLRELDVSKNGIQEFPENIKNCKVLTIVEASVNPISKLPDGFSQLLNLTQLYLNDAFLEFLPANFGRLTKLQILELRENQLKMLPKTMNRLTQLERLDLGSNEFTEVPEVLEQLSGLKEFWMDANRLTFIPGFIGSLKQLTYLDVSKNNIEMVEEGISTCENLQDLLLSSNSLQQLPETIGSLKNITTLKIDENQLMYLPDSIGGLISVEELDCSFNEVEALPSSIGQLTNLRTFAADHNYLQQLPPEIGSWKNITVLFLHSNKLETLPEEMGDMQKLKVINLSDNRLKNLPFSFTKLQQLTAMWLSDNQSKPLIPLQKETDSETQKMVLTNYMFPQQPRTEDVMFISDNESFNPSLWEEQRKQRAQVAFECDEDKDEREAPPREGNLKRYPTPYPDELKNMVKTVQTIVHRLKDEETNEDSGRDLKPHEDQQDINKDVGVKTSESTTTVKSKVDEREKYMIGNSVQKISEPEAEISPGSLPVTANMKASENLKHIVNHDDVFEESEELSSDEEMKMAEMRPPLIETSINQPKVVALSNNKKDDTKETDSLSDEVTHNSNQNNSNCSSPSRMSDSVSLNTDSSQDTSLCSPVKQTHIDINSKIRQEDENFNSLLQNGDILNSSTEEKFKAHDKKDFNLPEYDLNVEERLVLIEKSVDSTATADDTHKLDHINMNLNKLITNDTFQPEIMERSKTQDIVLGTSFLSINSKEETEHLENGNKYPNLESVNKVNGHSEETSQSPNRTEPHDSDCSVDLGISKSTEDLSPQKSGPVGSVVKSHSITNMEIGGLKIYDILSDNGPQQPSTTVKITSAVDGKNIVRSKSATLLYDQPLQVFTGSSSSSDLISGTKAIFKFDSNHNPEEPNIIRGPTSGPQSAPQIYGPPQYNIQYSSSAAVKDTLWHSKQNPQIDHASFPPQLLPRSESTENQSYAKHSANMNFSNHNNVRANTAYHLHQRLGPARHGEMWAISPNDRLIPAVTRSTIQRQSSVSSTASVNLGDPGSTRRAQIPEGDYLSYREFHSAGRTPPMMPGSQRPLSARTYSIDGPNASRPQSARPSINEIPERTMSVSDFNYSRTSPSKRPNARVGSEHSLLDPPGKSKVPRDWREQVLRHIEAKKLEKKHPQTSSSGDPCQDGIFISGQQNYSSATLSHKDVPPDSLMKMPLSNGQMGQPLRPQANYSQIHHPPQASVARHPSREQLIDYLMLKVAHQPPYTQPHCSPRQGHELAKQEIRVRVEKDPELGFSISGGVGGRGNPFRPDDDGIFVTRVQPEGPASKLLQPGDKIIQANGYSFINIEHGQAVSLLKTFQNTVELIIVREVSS
UniProt Q14152, whole entry, looked up: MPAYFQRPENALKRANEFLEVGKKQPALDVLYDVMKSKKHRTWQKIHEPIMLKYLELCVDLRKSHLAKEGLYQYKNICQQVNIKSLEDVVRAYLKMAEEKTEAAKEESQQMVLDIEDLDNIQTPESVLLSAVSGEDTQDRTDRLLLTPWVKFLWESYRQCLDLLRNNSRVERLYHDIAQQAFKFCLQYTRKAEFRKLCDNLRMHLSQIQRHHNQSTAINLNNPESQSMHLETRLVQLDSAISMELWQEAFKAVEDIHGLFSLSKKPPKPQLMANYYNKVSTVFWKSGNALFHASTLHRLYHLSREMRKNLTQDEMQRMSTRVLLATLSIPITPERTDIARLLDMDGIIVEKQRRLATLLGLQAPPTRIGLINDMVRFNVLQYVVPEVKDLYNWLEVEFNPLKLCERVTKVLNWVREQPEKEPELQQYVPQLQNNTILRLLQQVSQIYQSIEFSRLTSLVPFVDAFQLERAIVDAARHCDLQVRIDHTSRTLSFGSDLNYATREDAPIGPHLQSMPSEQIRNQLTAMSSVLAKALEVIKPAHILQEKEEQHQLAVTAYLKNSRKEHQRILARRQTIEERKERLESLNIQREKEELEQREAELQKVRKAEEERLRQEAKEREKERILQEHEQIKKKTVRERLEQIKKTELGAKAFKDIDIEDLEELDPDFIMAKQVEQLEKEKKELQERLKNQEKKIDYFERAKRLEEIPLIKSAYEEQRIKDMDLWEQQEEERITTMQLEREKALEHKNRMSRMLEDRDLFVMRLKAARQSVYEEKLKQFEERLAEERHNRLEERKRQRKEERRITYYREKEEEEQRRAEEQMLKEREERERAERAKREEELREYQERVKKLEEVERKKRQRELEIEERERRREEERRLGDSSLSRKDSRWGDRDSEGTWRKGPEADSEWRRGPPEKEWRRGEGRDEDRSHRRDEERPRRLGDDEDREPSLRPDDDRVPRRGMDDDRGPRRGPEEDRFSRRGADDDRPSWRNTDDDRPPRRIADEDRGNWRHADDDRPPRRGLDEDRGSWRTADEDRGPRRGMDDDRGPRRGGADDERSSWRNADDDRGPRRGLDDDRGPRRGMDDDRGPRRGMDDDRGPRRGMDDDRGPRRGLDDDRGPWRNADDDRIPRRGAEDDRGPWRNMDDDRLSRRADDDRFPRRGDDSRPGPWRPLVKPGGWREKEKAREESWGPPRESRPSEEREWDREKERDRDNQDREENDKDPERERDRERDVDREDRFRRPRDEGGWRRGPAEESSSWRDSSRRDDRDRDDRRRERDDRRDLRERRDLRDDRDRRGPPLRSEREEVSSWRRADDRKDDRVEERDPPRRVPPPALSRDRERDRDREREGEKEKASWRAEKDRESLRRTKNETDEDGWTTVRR
UniProt O95163: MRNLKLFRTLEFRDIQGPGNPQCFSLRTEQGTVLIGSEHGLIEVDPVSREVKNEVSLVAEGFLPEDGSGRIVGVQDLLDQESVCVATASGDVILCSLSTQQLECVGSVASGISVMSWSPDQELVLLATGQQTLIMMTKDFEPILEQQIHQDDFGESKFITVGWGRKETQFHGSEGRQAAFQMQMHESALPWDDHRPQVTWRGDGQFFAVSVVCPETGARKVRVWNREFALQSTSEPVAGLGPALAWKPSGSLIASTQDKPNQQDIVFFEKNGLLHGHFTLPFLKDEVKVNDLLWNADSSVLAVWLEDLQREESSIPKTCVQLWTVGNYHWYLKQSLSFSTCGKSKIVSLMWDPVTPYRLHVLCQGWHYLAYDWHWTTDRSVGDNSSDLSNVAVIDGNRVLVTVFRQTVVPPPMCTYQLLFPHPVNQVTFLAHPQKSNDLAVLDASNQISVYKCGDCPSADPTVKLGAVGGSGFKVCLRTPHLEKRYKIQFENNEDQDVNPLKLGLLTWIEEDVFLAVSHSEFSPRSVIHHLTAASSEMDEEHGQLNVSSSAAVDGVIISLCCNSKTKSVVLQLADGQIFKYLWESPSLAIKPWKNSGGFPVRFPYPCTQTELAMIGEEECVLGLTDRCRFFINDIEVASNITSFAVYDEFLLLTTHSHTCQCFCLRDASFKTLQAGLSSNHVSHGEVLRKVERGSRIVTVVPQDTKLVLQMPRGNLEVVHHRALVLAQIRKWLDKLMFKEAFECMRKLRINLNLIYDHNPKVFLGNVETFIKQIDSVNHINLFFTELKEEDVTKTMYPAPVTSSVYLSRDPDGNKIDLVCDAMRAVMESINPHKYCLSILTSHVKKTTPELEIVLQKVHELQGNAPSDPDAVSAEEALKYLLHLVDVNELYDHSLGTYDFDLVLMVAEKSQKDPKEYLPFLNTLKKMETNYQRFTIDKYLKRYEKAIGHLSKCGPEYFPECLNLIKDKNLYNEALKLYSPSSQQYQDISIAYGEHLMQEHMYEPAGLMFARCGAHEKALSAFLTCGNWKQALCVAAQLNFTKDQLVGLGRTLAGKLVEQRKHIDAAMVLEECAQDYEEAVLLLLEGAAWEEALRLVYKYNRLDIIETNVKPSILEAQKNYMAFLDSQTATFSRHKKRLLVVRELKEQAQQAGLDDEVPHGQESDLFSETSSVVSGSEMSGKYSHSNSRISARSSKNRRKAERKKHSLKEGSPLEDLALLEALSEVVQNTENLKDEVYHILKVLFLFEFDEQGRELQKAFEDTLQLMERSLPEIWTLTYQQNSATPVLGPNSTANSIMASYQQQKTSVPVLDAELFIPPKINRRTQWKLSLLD
UniProt Q5J8M3, whole entry, looked up: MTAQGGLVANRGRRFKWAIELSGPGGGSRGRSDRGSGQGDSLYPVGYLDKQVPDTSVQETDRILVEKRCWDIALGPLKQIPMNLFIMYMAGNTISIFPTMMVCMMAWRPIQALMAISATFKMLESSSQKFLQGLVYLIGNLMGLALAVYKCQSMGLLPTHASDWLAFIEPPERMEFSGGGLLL
UniProt P55199: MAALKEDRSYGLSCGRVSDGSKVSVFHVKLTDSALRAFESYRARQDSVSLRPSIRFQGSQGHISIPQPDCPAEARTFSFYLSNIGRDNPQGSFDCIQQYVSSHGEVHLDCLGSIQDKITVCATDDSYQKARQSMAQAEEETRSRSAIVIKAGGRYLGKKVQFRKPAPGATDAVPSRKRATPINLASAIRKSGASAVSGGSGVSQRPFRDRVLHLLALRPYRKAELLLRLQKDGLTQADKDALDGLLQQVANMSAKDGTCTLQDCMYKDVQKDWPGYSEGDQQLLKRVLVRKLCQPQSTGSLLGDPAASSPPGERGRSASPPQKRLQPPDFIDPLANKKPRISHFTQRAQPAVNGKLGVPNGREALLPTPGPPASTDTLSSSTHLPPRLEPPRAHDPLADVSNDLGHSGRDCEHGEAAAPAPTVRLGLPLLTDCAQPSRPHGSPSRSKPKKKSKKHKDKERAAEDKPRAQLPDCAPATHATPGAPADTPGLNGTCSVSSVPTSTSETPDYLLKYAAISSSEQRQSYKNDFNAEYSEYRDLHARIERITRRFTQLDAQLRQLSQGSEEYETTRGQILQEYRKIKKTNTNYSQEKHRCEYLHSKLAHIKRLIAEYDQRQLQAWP
UniProt P34913, whole entry, looked up: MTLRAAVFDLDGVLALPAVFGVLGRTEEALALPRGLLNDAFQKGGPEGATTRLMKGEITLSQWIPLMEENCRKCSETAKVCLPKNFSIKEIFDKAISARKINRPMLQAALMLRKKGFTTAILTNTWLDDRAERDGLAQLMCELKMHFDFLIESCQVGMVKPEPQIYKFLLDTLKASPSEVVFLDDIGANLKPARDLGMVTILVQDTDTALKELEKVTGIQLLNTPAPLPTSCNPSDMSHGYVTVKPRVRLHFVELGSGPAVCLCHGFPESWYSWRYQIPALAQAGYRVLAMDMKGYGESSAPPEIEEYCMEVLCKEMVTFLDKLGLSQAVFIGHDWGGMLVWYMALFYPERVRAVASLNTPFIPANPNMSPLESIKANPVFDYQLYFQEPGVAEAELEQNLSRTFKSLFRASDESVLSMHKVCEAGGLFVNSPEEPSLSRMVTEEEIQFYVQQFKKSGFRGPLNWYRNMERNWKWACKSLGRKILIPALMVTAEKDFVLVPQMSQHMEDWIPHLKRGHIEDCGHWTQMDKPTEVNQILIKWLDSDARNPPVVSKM
UniProt O43768: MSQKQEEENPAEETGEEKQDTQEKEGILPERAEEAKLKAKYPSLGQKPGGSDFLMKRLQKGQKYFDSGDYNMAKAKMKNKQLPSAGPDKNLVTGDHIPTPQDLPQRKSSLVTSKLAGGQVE
UniProt Q9H4G0, whole entry, looked up: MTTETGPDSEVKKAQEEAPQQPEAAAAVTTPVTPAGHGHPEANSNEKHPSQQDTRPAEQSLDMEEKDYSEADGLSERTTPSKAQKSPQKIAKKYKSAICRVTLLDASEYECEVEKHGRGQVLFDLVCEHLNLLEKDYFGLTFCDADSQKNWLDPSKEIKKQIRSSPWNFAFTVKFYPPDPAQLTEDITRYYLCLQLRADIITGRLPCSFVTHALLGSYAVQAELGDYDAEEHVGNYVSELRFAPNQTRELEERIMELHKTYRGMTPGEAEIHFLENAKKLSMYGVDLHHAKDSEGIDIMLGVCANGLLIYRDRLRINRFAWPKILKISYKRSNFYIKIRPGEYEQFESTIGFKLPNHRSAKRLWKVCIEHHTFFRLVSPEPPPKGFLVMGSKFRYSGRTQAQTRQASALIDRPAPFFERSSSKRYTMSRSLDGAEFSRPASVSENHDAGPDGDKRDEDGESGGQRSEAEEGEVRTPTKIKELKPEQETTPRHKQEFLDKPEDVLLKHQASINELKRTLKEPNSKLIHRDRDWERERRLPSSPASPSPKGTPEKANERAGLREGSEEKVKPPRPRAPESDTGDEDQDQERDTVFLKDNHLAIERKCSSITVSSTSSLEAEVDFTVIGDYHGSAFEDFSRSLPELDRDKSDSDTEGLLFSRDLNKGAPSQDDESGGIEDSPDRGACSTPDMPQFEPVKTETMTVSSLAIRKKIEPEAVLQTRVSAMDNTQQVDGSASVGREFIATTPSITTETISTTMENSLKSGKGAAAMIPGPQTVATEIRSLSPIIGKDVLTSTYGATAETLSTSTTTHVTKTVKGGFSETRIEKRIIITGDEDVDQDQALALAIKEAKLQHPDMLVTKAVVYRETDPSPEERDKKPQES
UniProt Q9NPA8: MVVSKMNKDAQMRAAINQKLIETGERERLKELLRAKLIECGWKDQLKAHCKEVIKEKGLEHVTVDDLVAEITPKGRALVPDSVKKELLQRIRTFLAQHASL

What follows are targets tested with c1cn2cc(-c3ccc4cn[nH]c4c3)nc(Nc3ccc(N4CCOCC4)cc3)c2n1 [entospletinib] (assay: log2 fold change, soluble protein after heating vs DMSO (PISA); higher = thermal stabilisation; K562 lysate, 10 uM; active = over 0.2 and 3.5 SD of the protein, either way, in both replicates (recomputed)).
In short: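 Following dounce homogenisation of K562 pellets in PBS pH 7.4 with 1 mM MgCl2, crude extract at 1 mg/mL protein was incubated for 30 min with 10 μM compound. Aliquots were then heated for 3 min over 48°C-58°C and pooled, NP-40 was added to 0.5% at 4°C, and soluble protein was recovered as the supernatant at 21,000xg for 90 min. Channel-sum-equalised TMTpro 16plex LC-MS/MS quantified this protein. Each value, from duplicates, is a log-two fold change in thermal stability relative to solvent controls.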

log2 fold change, inactive:
EPN1 (UniProt Q9Y6I3) 0.006
EMC3 (UniProt Q9P0I2) -0.007
EIF3K (UniProt Q9UBQ5) 0.008
EMC1 (UniProt Q8N766) -0.001
EMC10 (UniProt Q5UCC4) -0.021
ELP4 (UniProt Q96EB1) 0.012
EPB41L2 (UniProt O43491) 0.003
EIF2B4 (UniProt Q9UI10) -0.05
EPHX1 (UniProt P07099) -0.017
ERGIC2 (UniProt Q96RQ1) 0.042
ERBIN isoform 8 (UniProt Q96RT1) -0.002
EIF3A (UniProt Q14152) 0.04
ELP1 (UniProt O95163) 0.027
ELP5 isoform 4 (UniProt Q8TE02) 0.038
EMP3 (UniProt P54852) 0.144
ELOB (UniProt Q15370) 0.008
EIF2B5 (UniProt Q13144) 0.013
ELAC2 (UniProt Q9BQ52) 0.012
ERCC6L (UniProt Q2NKX8) 0.005
EPS15L1 isoform 2 (UniProt Q9UBC2) -0.011
EMC4 (UniProt Q5J8M3) -0.013
EIF3I (UniProt Q13347) 0.005
EIF3C (UniProt Q99613) 0.009
ELL (UniProt P55199) -0.003
EPHX2 (UniProt P34913) -0.058
ENTPD5 (UniProt O75356) 0.022
EIF2S2 (UniProt P20042) -0.016
EIF3J (UniProt O75822) -0.007
ENSA isoform 3 (UniProt O43768) -0.014
EIF3G (UniProt O75821) 0.003
ERCC2 (UniProt P18074) 0.012
EIF4G1 (UniProt Q04637) 0.007
EIF3M (UniProt Q7L2H7) 0.008
EPB41L1 (UniProt Q9H4G0) -0.043
ENY2 (UniProt Q9NPA8) -0.018

No new results follow: entries from further up.
log2 fold change, inactive:
EIF3A (UniProt Q14152) 0.04
ELP1 (UniProt O95163) 0.027
ELP5 isoform 4 (UniProt Q8TE02) 0.038
EMP3 (UniProt P54852) 0.144
ELOB (UniProt Q15370) 0.008
EIF2B5 (UniProt Q13144) 0.013
ELAC2 (UniProt Q9BQ52) 0.012
ERCC6L (UniProt Q2NKX8) 0.005
